Experimental data: US20020119154A1 (University of Pennsylvania, published 2002)
No constants are given. Whether binding was seen depends on the method and setting. Binding seen in cells or lysates may run through a third protein. Some entries that bind do so weakly or less than the wild type.

Chains of the proteins cited; added tags and fusions are not shown. Residues count along the entry.
UniProt P16471, residues 25-234: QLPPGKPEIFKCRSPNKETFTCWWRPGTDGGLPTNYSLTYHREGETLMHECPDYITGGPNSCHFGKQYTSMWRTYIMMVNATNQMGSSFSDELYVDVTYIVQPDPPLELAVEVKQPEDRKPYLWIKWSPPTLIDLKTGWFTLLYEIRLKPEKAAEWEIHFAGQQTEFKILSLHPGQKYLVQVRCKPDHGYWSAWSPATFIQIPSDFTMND

Columns and labels:
[1] = target: T1, human prolactin (hPRL) (human, UniProt P01236 29-227); assay: co-immunoprecipitation from human serum
T1 sequence (looked up): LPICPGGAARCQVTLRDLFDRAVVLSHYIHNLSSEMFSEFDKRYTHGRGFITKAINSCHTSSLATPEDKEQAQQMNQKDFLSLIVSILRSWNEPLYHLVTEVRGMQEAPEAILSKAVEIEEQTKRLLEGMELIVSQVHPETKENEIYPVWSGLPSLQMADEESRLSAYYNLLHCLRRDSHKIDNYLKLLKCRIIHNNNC

[2] = target: T1, human prolactin (hPRL); assay: co-immunoprecipitation from human serum (anti-PRL IP, anti-PRLR mAb blot)
[3] = target: T1, human prolactin (hPRL); assay: co-immunoprecipitation from pre-cleared human serum: IP α-PRL with IB α-PRLR (A), IP α-PRLR with IB α-PRL (C) [C]
[4] = target: T1, human prolactin (hPRL); assay: co-immunoprecipitation from human serum, figure legend

Measured: binding

human prolactin-binding protein (hPRLBP) from human serum (from UniProt P16471 25-234) (receptor)
binds: [1] | [2] | [3] | [4]
